These are yes or no findings as the source states them, for the method shown. In cells and extracts the contact can be indirect. Some results given as binding are weak or reduced against the parent protein; the word gives no strength.
Experiments:
[1] = target: Myc-E2F6 (human) (UniProt O75461); test: co-IP; competitive binding: HEK-293 or Saos-2 electroporated with Myc-E2F6, Flag-E2F1 and increasing amounts of EBNA3C plasmid; IP with anti-Myc, western blot
[2] = target: GST-tagged human E2F6 (human) (UniProt O75461); test: pull-down; S^35-radiolabeled in vitro translated Myc-EBNA3C full length and truncated mutants, pre-cleared with GST beads, incubated with GST control or GST-E2F6 and GST beads; binding buffer 0.1% NP-40, 0.5 mM DTT, 10% glycerol in 1X PBS; only the target purified
[3] = target: GST-tagged human E2F6 (human) (UniProt O75461); test: pull-down; lysates of 50 million B-cells (BJAB, BJAB7, BJAB10, LCL1, LCL2) incubated with GST control or GST-E2F6 and GST beads; western blot with anti-EBNA3C (A10); only the target purified
[4] = target: endogenous E2F1 of B-cell lines (human (endogenous in BJAB7, BJAB10, LCL1, LCL2)) (UniProt Q01094); test: co-IP; endogenous proteins in B-cell lysates (BJAB, BJAB7, BJAB10, LCL1, LCL2) in RIPA buffer, IP with anti-EBNA3C (A10), anti-E2F6 or anti-E2F1 antibody overnight at 4°C, western blot
[5] = target: endogenous E2F6 of B-cell lines (human (endogenous in BJAB7, BJAB10, LCL1, LCL2)) (UniProt O75461); test: as above
[6] = target: Flag-tagged human E2F6 (human) (UniProt O75461); test: co-IP; HEK-293 or Saos-2 co-transfected with Myc-EBNA3C and Flag-tagged E2F plasmids, lysed 36 h post-transfection, IP with 1 ug mouse anti-Flag (M2), western blot; S1A Fig: HEK-293, IP with rabbit anti-E2F6
[7] = target: Flag-tagged E2F3a (human) (UniProt O00716); test: as above
[8] = target: Flag-tagged E2F2 (human) (UniProt Q14209); test: as above
[9] = target: Flag-tagged E2F1 (wild type) (human) (UniProt Q01094); test: as above
[10] = target: EBNA3C of EBV-transformed lymphoblastoid cell lines (LCL1, LCL2) (Epstein-Barr virus (endogenous in EBV-transformed LCL1, LCL2)) (UniProt P03204); test: co-IP; endogenous proteins in B-cell lysates (BJAB, BJAB7, BJAB10, LCL1, LCL2) in RIPA buffer, IP with anti-EBNA3C (A10), anti-E2F6 or anti-E2F1 antibody overnight at 4°C, western blot

EBNA3C (expression construct of the competitive binding assay) (from UniProt P03204 1-992)
binding [1]: binds

EBNA3C C-terminal domain (residues 900–992), in vitro translated (from UniProt P03204 900-992) (domain or fragment)
binding [2]: binds

EBNA3C N-terminal domain (residues 100–200), in vitro translated (from UniProt P03204 100-200) (domain or fragment)
binding [2]: binds

EBNA3C of EBV-transformed lymphoblastoid cell lines (LCL1, LCL2) (from UniProt P03204 1-992)
binding [3]: binds
binding [4]: binds
binding [5]: binds

EBNA3C stably expressed in BJAB cells (BJAB7, BJAB10) (from UniProt P03204 1-992)
binding [3]: binds
binding [4]: binds
binding [5]: binds

Myc-tagged EBNA3C full length (EBV nuclear antigen 3C) (from UniProt P03204 1-992)
binding [6]: binds
binding [7]: binds
binding [8]: binds
binding [9]: binds

Myc-tagged EBNA3C full length, in vitro translated (from UniProt P03204 1-992)
binding [2]: binds

endogenous E2F6 of B-cell lines (from UniProt O75461-1 1-281)
binding [4]: binds
binding [10]: binds
